Test results from ChEMBL document CHEMBL1132491, “Benzimidazole derivatives. 2. Synthesis and structure-activity relationships of new azabicyclic benzimidazole-4-carboxylic acid derivatives with affinity for serotoninergic 5-HT(3) receptors” (J Med Chem, 1999).

Species on record: Cavia porcellus
Experiment: Single-point analysis using 5(10e-9) M concentration of the antagonist (pA2= -log([B]/concentration ratio-1); [B] =concentration of the antagonist).
Assay type: functional
Details: read-out: pA2 (converted)
Method in brief: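 Ileal strip preparation with methysergide 10^-6 M present. Paired noncumulative 5-HT curves are run, with the antagonist at 5×10^-9 M added 30 min before the second curve. The concentration ratio is taken at the 5-HT level giving 50% of the control maximum in the ≥10^-6 M phase. Single-point pA2 = −log([B]/(CR−1)) (Furchgott).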

Compound `CN1C2CCCC1CC(NC(=O)c1nn(C)c3ccccc13)C2` (stereo unspecified) [GRANISETRON] has a Kb of 0.631 nM.
